# Measured values as given in PubChem BioAssay AID2685 (National Center for Advancing Translational Sciences (NCATS), 2010).
# This is one part of the list. These are further read-outs of the screen, such as a control signal, another cell line or another target. No call is given for them. Compounds called inactive in the main read-out are mostly missing here. Potencies come from curve fits of mixed quality, noted in brackets.
# Assay: qHTS Assay for Lipid Storage Modulators in Drosophila S3 Cells;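 for cell number change: cells counted by Cell Tracker Red CMTPX staining in the red channel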
# Conditions: BODIPY lipid droplet fluorescence, 18-24 h; for cell number change: measured here: cell count max response, cells fed with added oleic acid
# Procedure, shortened: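 Laser-scanning cytometry quantifies lipid droplet accumulation (500–530 nm total intensity; droplet/cell object ratio) in oleic acid-fed (400 uM added) Drosophila S3 cells treated with a concentration series. 20 uM Triacsin C defined 100% inhibition.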
# [1] = measured here: cell number channel AC50, cells fed with added oleic acid
# [2] = measured here: lipid fluorescence (Fed channel) AC50, cells fed with added oleic acid
Structure (SMILES),cell number change [%],AC50 [1],AC50 [2]
OC(COc1ccc(Cl)cc1)CN1C2=NCCCN2c2ccccc21 (stereo not given),1.65,"3.66 µM [falling, single point]",–
CCc1ccc(N2CC(C(=O)Nc3ccc(S(=O)(=O)NCC4CCCO4)cc3)CC2=O)cc1 (stereo not given),-3.85,–,–
S=C(NCCc1ccccc1)Nc1cccc2cnccc12,-45.7,"29.1 µM [falling, single point]","29.1 µM [falling, single point]"
O=C(CC(c1ccccc1)c1ccccc1)Nc1ccc(C(=O)O)cc1,14.4,–,–
O=C(NCCN1CCN(Cc2ccccc2)CC1)Nc1cc(Cl)cc(Cl)c1,-42.6,"29.1 µM [falling, single point]","0.103 µM [falling, full curve, poor fit]"
NS(=O)(=O)c1ccc(NC(=O)COc2cccc3ccccc23)cc1,14,–,"16.4 µM [rising, single point]"
CCN(CC)c1ccc(/C=C2/C(=O)c3ccc(C(=O)O)cc3C2=O)cc1,2.9,"6.51 µM [falling, single point]","5.8 µM [falling, full curve]"
COc1ccc(C2(CNC(=O)c3ccc(N)cc3)CCCC2)cc1,4.74,–,–
COc1ccccc1CCN=C(N)NS(=O)(=O)c1cc(F)ccc1F,24.5,–,"35.5 µM [rising, single point]"
COC(=O)c1c(NS(=O)(=O)c2ccc3ccccc3c2)sc2c1CCCC2,–,"0.58 µM [rising, single point]","8.2 µM [rising, partial curve]"
O=C(Nc1nccs1)C1CCCN(S(=O)(=O)c2cccc3cccnc23)C1 (stereo not given),-18.3,–,"3.26 µM [rising, full curve]"
Cc1csc(NC(=O)CN2C(=O)COc3ccc(Cl)cc32)n1,-15.8,–,–
C/C(CC(=O)Nc1ccccn1)=N\NC(=O)c1ccncc1,0.901,–,"29.1 µM [falling, single point]"
COc1ccccc1N1CCN(S(=O)(=O)c2cnc[nH]2)CC1,46.6,"32.6 µM [rising, single point]","0.517 µM [rising, partial curve]"
Cc1cccc(C(=O)NCCN2CCOCC2)c1[N+](=O)[O-],16.5,–,–
Cc1cc(-c2ccco2)n(CC(=O)NCCCc2ccccc2)n1,14.4,–,"0.731 µM [falling, full curve, poor fit]"
Cc1cc(Cl)n2c(nc3cc(F)c(F)cc32)c1C#N,-22,–,"29.1 µM [falling, single point]"
COc1c(Cl)cc(-c2noc(C)c2C(=O)NCCc2ccc(C)cc2)cc1Cl,–,"2.91 µM [rising, partial curve]","0.58 µM [rising, partial curve]"
CCOc1ccccc1N1CCN(C(=O)c2cc(-c3cc(OC)ccc3OC)nc3ccccc23)CC1,7.58,–,–
O=C(CN1CCN(S(=O)(=O)c2cccc(Br)c2)CC1)N1CCCCC1,-14.8,–,–
COc1ccc(C2CC(=O)c3c(C)nc(N4CCN(Cc5ccccc5)CC4)nc3C2)cc1OC (stereo not given),-29,–,"0.461 µM [rising, partial curve]"

Structure (SMILES),cell number change [%],AC50 [1],AC50 [2]
N/C(=N\OC(=O)c1cccc(F)c1)c1ccccc1,-30.5,"25.9 µM [falling, single point]",–
COc1ccc(OCC(=O)Nc2nnc(C)s2)cc1,24.3,–,"7.31 µM [rising, partial curve]"
COc1cc([N+](=O)[O-])c2ncsc2c1,9.45,–,"0.0058 µM [rising, full curve, poor fit]"
CSCC[C@H](NC(=O)COc1ccc(Cl)cc1)c1nc2ccccc2[nH]1,-18.3,–,"18.4 µM [rising, single point]"
Cc1nc(SCC(=O)Nc2ccc(F)cc2)c2oc3ccccc3c2n1,12.2,–,"20.6 µM [rising, partial curve]"
Nc1cc([N+](=O)[O-])cc2oc(-c3ccccc3)cc12,-58.2,"29.1 µM [falling, single point]","5.17 µM [falling, full curve]"
COc1ccc(C(C)=O)cc1CN(C)C,-1.38,–,"0.58 µM [falling, full curve, poor fit]"
O=C(Oc1ccc([N+](=O)[O-])cc1)c1cc(-c2ccccc2)nc2ccccc12,–,–,"29.1 µM [rising, single point]"
Cc1ccc(S(=O)(=O)c2nc(-c3ccco3)oc2SCC(N)=O)cc1,14.4,–,"6.51 µM [rising, partial curve, poor fit]"
O=C(CSc1nc2ccccc2nc1SCC(=O)N1CCOCC1)N1CCOCC1,–,"2.06 µM [rising, partial curve]",–
C/C(=N\NC(=O)c1ccc2ccccc2c1)c1cccnc1,4.11,"2.06 µM [rising, partial curve, poor fit]","3.66 µM [rising, single point]"
COc1cc(CNc2ncnc3c2[nH]c2ccc(C)cc23)cc(OC)c1,-43.4,"5.17 µM [falling, partial curve, poor fit]","0.103 µM [rising, full curve, poor fit]"
O=C1C=C(N2CCOCC2)C2(CCCCC2)O1,-23.1,–,–
O=C1c2ccccc2C(=O)N1S(=O)(=O)c1ccccc1,12.9,–,–
CCCNC(=O)Cn1cnc2sc(C(=O)N3CCN(CCC)CC3)c(C)c2c1=O,–,–,"0.00461 µM [falling, full curve]"
CN(Cc1ccccc1)C1(CNC(=O)CCC(F)(F)F)Cc2ccccc2C1,24.6,–,–
CCCCOC(=O)c1ccc(N=Nc2c(C)c(C#N)c(O)[nH]c2=O)cc1,–,"0.291 µM [rising, full curve]",–
COCCn1cc(C(=O)NCCCOC(C)C)c2c3ccccc3n(C)c2c1=O,35.1,"16.4 µM [rising, single point]",–
Cc1nn(C)cc1CNC(=O)Nc1ccc(Br)cc1Cl,–,–,"3.26 µM [rising, partial curve]"
Cc1ccccc1C(=O)NC(=S)Nc1ccccc1C(F)(F)F,78,"7.31 µM [rising, partial curve, poor fit]",–
CCN(CC)CCCNc1nc(SC)nc2sc3c(c12)CCN(C)C3,33.3,"29.1 µM [rising, single point]",–

Structure (SMILES),cell number change [%],AC50 [1],AC50 [2]
CC1CCCC(NC(=O)CCn2c(=O)oc3ccccc32)C1C (stereo not given),9.68,–,"0.184 µM [rising, full curve, poor fit]"
O=c1[nH]c(C2CCCN(S(=O)(=O)c3ccc(F)cc3)C2)nc2c1nnn2Cc1ccc(F)cc1 (stereo not given),-17.1,–,–
Nc1nc(O)c(N=Nc2ccc(S(N)(=O)=O)cc2)c(=O)[nH]1,–,"4.61 µM [rising, single point]",–
COc1ccc(S(=O)(=O)N2CCC(C(=O)NCCc3c[nH]c4ccccc34)CC2)cc1,-2.82,–,–
C=CCOc1c(OC)cc(/C=N/Nc2cccc(C(=O)O)c2)c(Br)c1Br,22.3,–,"16.4 µM [rising, single point]"
Cc1ccc(C(=O)C(C)OC(=O)Cn2c(C)csc2=O)cc1 (stereo not given),5.23,–,"9.2 µM [rising, partial curve]"
CC(C)N(Cc1nc(-c2ccc(Cl)cc2)no1)C(=O)CCC1CCCC1,106,"10.3 µM [rising, partial curve]","11.6 µM [rising, partial curve]"
CC(=O)NCCC(=O)Nc1cc(S(=O)(=O)N2CCCCC2)ccc1Oc1cccc(C)c1,-14.6,–,"3.66 µM [falling, full curve]"
CCc1nnc(SCc2ccc(C(=O)OC)o2)n1N,-17.6,–,–
O=C(Nc1cn(-c2ccccc2)nc1-c1ccccc1)c1ccccc1,28.7,–,"29.1 µM [rising, single point]"
COC(=O)c1cc(S(=O)(=O)N2CCN(c3ccccc3OC)CC2)cn1C,15.2,–,"0.116 µM [rising, single point]"
Cc1ccc(C(=O)CN2C(=O)NC3(CCc4ccccc43)C2=O)s1 (stereo not given),11.4,–,"29.1 µM [falling, single point]"
CCOc1cc(CNc2ccccc2)cc(Br)c1OCC(=O)NC(C)(C)C,41.5,"20.6 µM [rising, single point]","14.6 µM [rising, partial curve]"
O=C(O)CCc1nn2cnc3sc4c(c3c2nc1=O)CCCC4,10.3,–,"29.1 µM [falling, single point]"
CC(=O)c1ccc(C(=O)N(C)C2CCCN(Cc3ccccc3F)C2)s1 (stereo not given),-25.7,–,"29.1 µM [rising, single point]"
Cc1ccc2oc(NC(=O)N3CCOCC3)cc(=O)c2c1,-2.03,–,"2.91 µM [rising, full curve]"
Cc1nc2sc(C(=O)c3ccccc3)c(N)c2c(C)c1C,8.81,–,"2.59 µM [rising, single point]"
CN(C(=O)CO/N=C/c1ccc(OC(F)F)cc1)C1CCS(=O)(=O)C1 (stereo not given),-23.6,–,"1.64 µM [falling, partial curve, poor fit]"
Cc1cccc2nc(Cn3c(=O)n(CCC(=O)NCc4ccco4)c(=O)c4sccc43)cc(=O)n12,14.2,–,"0.0731 µM [rising, full curve, poor fit]"
Cc1nnc(NC(=O)c2cccc(F)c2)s1,–,–,"1.84 µM [falling, partial curve]"
CCOC(=O)c1ccc2c(c1)C1C=CCC1C(C(=O)O)N2 (stereo not given),2.34,–,"5.17 µM [rising, single point]"

# 3 of these compounds, reformatted.
Structure (SMILES) | cell number change [%] | AC50 [1] | AC50 [2]
CC(=O)c1ccc(C(=O)N(C)C2CCCN(Cc3ccccc3F)C2)s1 (stereo not given) | -25.7 | – | 29.1 µM [rising, single point]
Cc1ccc2oc(NC(=O)N3CCOCC3)cc(=O)c2c1 | -2.03 | – | 2.91 µM [rising, full curve]
Cc1nc2sc(C(=O)c3ccccc3)c(N)c2c(C)c1C | 8.81 | – | 2.59 µM [rising, single point]
